# Assay results as given in PubChem BioAssay AID493014 (National Center for Advancing Translational Sciences (NCATS), 2011).
# The list shows a part of the results. These are further read-outs of the screen, such as a control signal, another cell line or another target. No call is given for them. Most of these compounds were active or inconclusive in the main read-out, so they are no random draw. Words in brackets tell the shape of the fitted curve; partial curves, single points and poor fits give uncertain potencies.
# Assay: qHTS Assay to Find Inhibitors of Chronic Active B-Cell Receptor Signaling
# Conditions: ABC-DLBCL IkBa-CBG/CBR reporter, luminescence ratio (green luciferase fused to IkBa over red control in TMD8 lymphoma cells), 4 h
# Summary of the method: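 TMD8 human ABC-DLBCL cells with doxycycline-inducible IκBα–green luciferase fusion and unfused red luciferase, in 0.5% FBS medium; compounds up to 46 uM, 4 h at 37C. Green/red luminescence ratio, filter-overlap corrected, fitted to concentration-response curves.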
# [1] = measured here: CBR red luminescence, cell number
# [2] = measured here: IkBa-CBG green luminescence
SMILES,AC50 [1],AC50 [2]
Cn1cc(C(=O)NCc2ccc(F)cc2)c(=O)c2cc(S(=O)(=O)N3CCCCC3)ccc21,"4.11 µM [rising, partial curve, poor fit]",
Cc1nc2ccc(Cc3ccc4nc(C)[nH]c4c3)cc2[nH]1,"18.4 µM [falling, partial curve, poor fit]",
Cc1cccc(CN2C(=O)/C(=C\c3ccc(C(=O)NCCCN4CCN(C)CC4)cc3)Oc3ccccc32)c1,"3.98 µM [rising, full curve, poor fit]",
O=[N+]([O-])c1ccc(N2CCN(c3ccccc3Cl)CC2)cn1,"3.55 µM [rising, partial curve, poor fit]",
Cc1cc(Cl)ccc1OC(C)C(=O)Nc1ccc(C(=O)Nc2ccccc2C(=O)O)cc1 (configuration not stated),"5.62 µM [falling, partial curve, poor fit]",
CC(=O)N1N=C(c2ccccc2OC(=O)/C=C/c2ccccc2)CC1c1ccccc1 (configuration not stated),"12.6 µM [falling, single point]",
O=C(Nc1ncc(Cc2ccccc2Cl)s1)c1ccc(-c2cccc([N+](=O)[O-])c2)o1,"32.6 µM [rising, single point]",
COc1ccc(/C=N/NC(=O)c2ccccc2O)cc1CSc1ccccn1,"7.31 µM [falling, partial curve]",
Cc1ccnc(OC(C(=O)O)C(OCc2ccccc2)(c2ccc(F)cc2)c2ccc(F)cc2)n1 (configuration not stated),"20 µM [falling, single point]",
Cc1ccc(NC(=O)Cc2c(C(=O)O)n(C)c3ccccc23)cc1F,"2.82 µM [rising, single point]",
O=[N+]([O-])c1cccnc1NCCc1c[nH]c2ccccc12,"0.316 µM [rising, full curve, poor fit]",
COc1cc(NC(=O)N2c3ccccc3Sc3ccccc32)c(C(=O)O)cc1OC,"35.5 µM [rising, partial curve, poor fit]",
Cc1cc(C)cc(CC(Cc2nc3ccccc3[nH]2)c2nc3ccccc3[nH]2)c1 (configuration not stated),"41.1 µM [falling, single point]",
C=CCSc1n[nH]c(-c2ccc(OCCC)cc2)n1,,"13 µM [falling, partial curve, poor fit]"
CC(=O)N(CCC1(C(C)C)CCOC(C)(C)C1)C(C)c1cccs1 (configuration not stated),"15.8 µM [falling, single point]",
c1ccc(-c2nc(NCc3cccnc3)c3ccccc3n2)cc1,"25.1 µM [falling, single point]",
Cc1nn(-c2nc3ccccc3s2)c(C)c1Oc1ccccc1O,"29.1 µM [rising, single point]",
O=C(c1ccc(S(=O)(=O)Cc2ccccc2Cl)c([N+](=O)[O-])c1)N1CCOCC1,"10 µM [falling, partial curve, poor fit]",
COC(=O)N1CCN(c2ccc(C)c(C)c2)CC1,"20 µM [rising, single point]",
O=C1C(NS(=O)(=O)c2cccs2)=C(N2CCOCC2)C(=O)c2ccccc21,"1.58 µM [rising, partial curve, poor fit]",

# Reprinted at random: two records from the list, in no set order.
SMILES,AC50 [1],AC50 [2]
Cc1ccnc(OC(C(=O)O)C(OCc2ccccc2)(c2ccc(F)cc2)c2ccc(F)cc2)n1 (configuration not stated),"20 µM [falling, single point]",
Cc1cc(C)cc(CC(Cc2nc3ccccc3[nH]2)c2nc3ccccc3[nH]2)c1 (configuration not stated),"41.1 µM [falling, single point]",

# Additional entries follow.

SMILES,AC50 [1],AC50 [2]
C[C@H]1CCC[C@]2(C)C[C@H]3OC(=O)C(CN4CCCCCC4)[C@H]3C=C12 (some centres not stated),"17.8 µM [falling, partial curve, poor fit]",
CCOc1cc(S(=O)(=O)NCCc2ccc(OC)c(OC)c2)c(OCC)cc1-n1cnnn1,"0.82 µM [rising, partial curve, poor fit]",
CSc1nsc2nc(=O)c(/C=C3\C(C)=Nc4ccccc43)c(N)n12,"14.1 µM [falling, partial curve]",
Cc1ccnc(Nc2nc3ccccc3o2)n1,"23.1 µM [falling, partial curve]",
O=C1CC(c2c[nH]c3ccccc23)C(=O)N1c1ccccc1 (configuration not stated),"0.259 µM [falling, full curve]",
Cc1ccc(Cl)cc1-n1ncc2c(Nc3ccc4c(c3)OCCO4)ncnc21,"11.2 µM [rising, partial curve, poor fit]",
Cc1ccc2nc(NC(=O)CN3C(=O)NC4(CCCCC4)C3=O)sc2c1,"8.2 µM [falling, partial curve]",
NC(=O)C1CCN(c2ncnc3c(-c4ccccc4)nsc23)CC1,"4.11 µM [rising, single point]",
O=Cc1sc(Nc2ccccc2)nc1Cl,"11.2 µM [falling, partial curve, poor fit]",
Cc1nn(-c2ccccc2)c(C)c1C(=O)OCC(=O)N(C)c1ccccc1,"7.31 µM [falling, partial curve, poor fit]",
COc1ccc(NC(=O)Nc2ccccc2OC)cc1,"4.61 µM [falling, partial curve]",
CCOc1cccc(-c2c(C(=O)N/N=C/c3c(F)cccc3Cl)nnn2-c2nonc2N)c1,"35.5 µM [falling, single point]",
COc1ccc(Cn2c3nc4ccccc4nc3c3c(=O)n(Cc4ccco4)cnc32)cc1,"2.06 µM [falling, full curve, poor fit]","2.06 µM [rising, full curve, poor fit]"
O=C(Oc1cccccc1=O)c1ccccc1,"31.6 µM [falling, single point]",
Cc1cc(C)c(C(=O)Nc2ccc(Br)c(C(F)(F)F)c2)c(C)c1,"29.1 µM [falling, single point]",
CCCCNc1nc(N)nc(-c2cc(Cl)ccc2O)n1,"20.6 µM [falling, partial curve, poor fit]",
Cn1c(SCC(=O)Nc2cccc(Br)c2)nnc1-c1cc2ccccc2o1,"0.259 µM [falling, full curve, poor fit]",
CCOC(=O)c1cc(-c2ccccc2)n(CC(=O)Nc2ccccc2OCC)c1C,"0.501 µM [rising, full curve, poor fit]",
Cc1nc(NC(=O)COC(=O)C2CC2C)c(Cl)cc1Cl (configuration not stated),"18.4 µM [rising, single point]",
CCOC(=O)c1cnc(-n2nc(C)cc2C)nc1NC,"11.2 µM [rising, single point]","35.5 µM [falling, single point]"
